Test results reported in paper PMC3667834.
No constants are given. Whether binding was seen depends on the method and setting. Binding can be weak; no strength is given. One block for each molecule: values may come before it.

Tests used:
[1] = target: T1, OsMKK6 (Oryza sativa (indica rice, cultivar Pusa Basmati 1)) (UniProt Q5QN75); assay: two-hybrid; Matchmaker system, yeast AH109; MAPKK fused to GAL4 DNA-binding domain (pGBKT7) as bait, MAPK fused to GAL4 activation domain (pGADT7) as prey; co-transformants selected on SD/-Leu/-Trp, interaction read as growth on SD/-Ade/-His/-Leu/-Trp
T1 sequence: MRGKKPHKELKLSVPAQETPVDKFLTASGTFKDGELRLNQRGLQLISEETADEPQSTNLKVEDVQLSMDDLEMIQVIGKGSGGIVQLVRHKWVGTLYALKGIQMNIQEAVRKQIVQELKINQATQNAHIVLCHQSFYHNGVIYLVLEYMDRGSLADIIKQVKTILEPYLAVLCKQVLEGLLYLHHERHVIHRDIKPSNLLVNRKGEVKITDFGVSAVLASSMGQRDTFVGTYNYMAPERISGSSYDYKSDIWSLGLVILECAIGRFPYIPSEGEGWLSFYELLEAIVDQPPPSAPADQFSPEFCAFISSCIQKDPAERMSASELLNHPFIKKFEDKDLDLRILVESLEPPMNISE

[2] = target: T2, OsMPK3 (Oryza sativa (indica rice, cultivar Pusa Basmati 1)) (UniProt A2XFC8); assay: two-hybrid; Matchmaker system, yeast AH109; MAPKK fused to GAL4 activation domain (pGADT7) as prey, MAPK fused to GAL4 DNA-binding domain (pGBKT7) as bait (the only orientation for OsMKK1; vector swap for the other MAPKKs); growth on SD/-Ade/-His/-Leu/-Trp
T2 sequence: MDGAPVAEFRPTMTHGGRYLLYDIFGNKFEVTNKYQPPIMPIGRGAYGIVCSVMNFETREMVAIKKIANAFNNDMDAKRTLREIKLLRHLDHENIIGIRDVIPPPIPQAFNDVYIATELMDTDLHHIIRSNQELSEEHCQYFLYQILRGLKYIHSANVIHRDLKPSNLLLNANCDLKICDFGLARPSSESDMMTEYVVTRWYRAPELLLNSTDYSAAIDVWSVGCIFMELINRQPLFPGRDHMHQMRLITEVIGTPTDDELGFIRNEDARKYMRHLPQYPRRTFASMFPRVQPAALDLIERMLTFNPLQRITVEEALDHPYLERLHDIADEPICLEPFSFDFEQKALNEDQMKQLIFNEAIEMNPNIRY

[3] = target: OsMKK10-2 (Oryza sativa (indica rice, cultivar Pusa Basmati 1)) (UniProt A7L4W3); assay: two-hybrid; Matchmaker system, yeast AH109; MAPKK fused to GAL4 DNA-binding domain (pGBKT7) as bait, MAPK fused to GAL4 activation domain (pGADT7) as prey; co-transformants selected on SD/-Leu/-Trp, interaction read as growth on SD/-Ade/-His/-Leu/-Trp
[4] = target: OsMKK3 (Oryza sativa (indica rice, cultivar Pusa Basmati 1)) (UniProt A3FK65); assay: as above
[5] = target: OsMPK14 (Oryza sativa (indica rice, cultivar Pusa Basmati 1)) (UniProt B3GCK8); assay: two-hybrid; Matchmaker system, yeast AH109; MAPKK fused to GAL4 activation domain (pGADT7) as prey, MAPK fused to GAL4 DNA-binding domain (pGBKT7) as bait (the only orientation for OsMKK1; vector swap for the other MAPKKs); growth on SD/-Ade/-His/-Leu/-Trp
[6] = target: OsMPK16-1 (Oryza sativa (indica rice, cultivar Pusa Basmati 1)) (UniProt B3VMS8); assay: as above
[7] = target: OsMPK20-3 (Oryza sativa (indica rice, cultivar Pusa Basmati 1)) (UniProt B3GCL2); assay: as above
[8] = target: OsMPK20-4 (Oryza sativa (indica rice, cultivar Pusa Basmati 1)) (UniProt Q0PIU4); assay: as above
[9] = target: OsMPK7 (Oryza sativa (indica rice, cultivar Pusa Basmati 1)) (UniProt Q0PIU5); assay: as above
[10] = target: OsMKK4 (Oryza sativa (indica rice, cultivar Pusa Basmati 1)) (UniProt I3RJI6); assay: two-hybrid; Matchmaker system, yeast AH109; MAPKK fused to GAL4 DNA-binding domain (pGBKT7) as bait, MAPK fused to GAL4 activation domain (pGADT7) as prey; co-transformants selected on SD/-Leu/-Trp, interaction read as growth on SD/-Ade/-His/-Leu/-Trp
[11] = target: OsMPK4 (Oryza sativa (indica rice, cultivar Pusa Basmati 1)); assay: two-hybrid; Matchmaker system, yeast AH109; MAPKK fused to GAL4 activation domain (pGADT7) as prey, MAPK fused to GAL4 DNA-binding domain (pGBKT7) as bait (the only orientation for OsMKK1; vector swap for the other MAPKKs); growth on SD/-Ade/-His/-Leu/-Trp

- binding [1]: binds
Molecule: OsMPK20-4 (from UniProt Q0PIU4) (enzyme)

- binding [1]: no binding
Molecule: OsMPK20-5 (enzyme)

- binding [1]: no binding
Molecule: OsMPK16-2 (enzyme)

- binding [1]: no binding
Molecule: OsMPK17-1 (enzyme)

- binding [1]: binds
Molecule: OsMPK16-1 (from UniProt B3VMS8) (enzyme)

- binding [1]: binds
Molecule: OsMPK4 (enzyme)

- binding [2]: binds
Molecule: OsMKK4 (from UniProt I3RJI6) (enzyme)

- binding [3]: binds weakly
- binding [4]: binds
Molecule: OsMPK7 (from UniProt Q0PIU5) (enzyme)

- binding [1]: no binding
Molecule: OsMPK21-2 (enzyme)

- binding [5]: no binding
- binding [6]: no binding
- binding [7]: no binding
- binding [8]: no binding
- binding [2]: no binding
- binding [9]: no binding
Molecule: OsMKK1 (from UniProt A5A544) (enzyme)

- binding [1]: no binding
Molecule: OsMPK6 (enzyme)

- binding [4]: binds
Molecule: OsMPK14 (from UniProt B3GCK8) (enzyme)

- binding [5]: binds
- binding [9]: binds
Molecule: OsMKK3 (from UniProt A3FK65) (enzyme)

- binding [9]: binds weakly
Molecule: OsMKK10-2 (from UniProt A7L4W3) (enzyme)

- binding [1]: no binding
Molecule: OsMPK20-2 (enzyme)

- binding [1]: binds
Molecule: OsMPK20-3 (from UniProt B3GCL2) (enzyme)

- binding [10]: binds
B1: OsMPK3 (enzyme, UniProt A2XFC8 1-369)
chain: MDGAPVAEFRPTMTHGGRYLLYDIFGNKFEVTNKYQPPIMPIGRGAYGIVCSVMNFETREMVAIKKIANAFNNDMDAKRTLREIKLLRHLDHENIIGIRDVIPPPIPQAFNDVYIATELMDTDLHHIIRSNQELSEEHCQYFLYQILRGLKYIHSANVIHRDLKPSNLLLNANCDLKICDFGLARPSSESDMMTEYVVTRWYRAPELLLNSTDYSAAIDVWSVGCIFMELINRQPLFPGRDHMHQMRLITEVIGTPTDDELGFIRNEDARKYMRHLPQYPRRTFASMFPRVQPAALDLIERMLTFNPLQRITVEEALDHPYLERLHDIADEPICLEPFSFDFEQKALNEDQMKQLIFNEAIEMNPNIRY

- binding [6]: binds
- binding [7]: binds
- binding [8]: binds
- binding [11]: binds
B2: OsMKK6 (enzyme, UniProt Q5QN75 1-355)
chain: MRGKKPHKELKLSVPAQETPVDKFLTASGTFKDGELRLNQRGLQLISEETADEPQSTNLKVEDVQLSMDDLEMIQVIGKGSGGIVQLVRHKWVGTLYALKGIQMNIQEAVRKQIVQELKINQATQNAHIVLCHQSFYHNGVIYLVLEYMDRGSLADIIKQVKTILEPYLAVLCKQVLEGLLYLHHERHVIHRDIKPSNLLVNRKGEVKITDFGVSAVLASSMGQRDTFVGTYNYMAPERISGSSYDYKSDIWSLGLVILECAIGRFPYIPSEGEGWLSFYELLEAIVDQPPPSAPADQFSPEFCAFISSCIQKDPAERMSASELLNHPFIKKFEDKDLDLRILVESLEPPMNISE
